This passage reports binding results from patent US20260209348A1.

By UniProt entry, the sequences of proteins in these tests, tags left out. Where a name states a change or a piece, a line headed by the entry shows the natural chain unless it says otherwise.
UniProt Q01974: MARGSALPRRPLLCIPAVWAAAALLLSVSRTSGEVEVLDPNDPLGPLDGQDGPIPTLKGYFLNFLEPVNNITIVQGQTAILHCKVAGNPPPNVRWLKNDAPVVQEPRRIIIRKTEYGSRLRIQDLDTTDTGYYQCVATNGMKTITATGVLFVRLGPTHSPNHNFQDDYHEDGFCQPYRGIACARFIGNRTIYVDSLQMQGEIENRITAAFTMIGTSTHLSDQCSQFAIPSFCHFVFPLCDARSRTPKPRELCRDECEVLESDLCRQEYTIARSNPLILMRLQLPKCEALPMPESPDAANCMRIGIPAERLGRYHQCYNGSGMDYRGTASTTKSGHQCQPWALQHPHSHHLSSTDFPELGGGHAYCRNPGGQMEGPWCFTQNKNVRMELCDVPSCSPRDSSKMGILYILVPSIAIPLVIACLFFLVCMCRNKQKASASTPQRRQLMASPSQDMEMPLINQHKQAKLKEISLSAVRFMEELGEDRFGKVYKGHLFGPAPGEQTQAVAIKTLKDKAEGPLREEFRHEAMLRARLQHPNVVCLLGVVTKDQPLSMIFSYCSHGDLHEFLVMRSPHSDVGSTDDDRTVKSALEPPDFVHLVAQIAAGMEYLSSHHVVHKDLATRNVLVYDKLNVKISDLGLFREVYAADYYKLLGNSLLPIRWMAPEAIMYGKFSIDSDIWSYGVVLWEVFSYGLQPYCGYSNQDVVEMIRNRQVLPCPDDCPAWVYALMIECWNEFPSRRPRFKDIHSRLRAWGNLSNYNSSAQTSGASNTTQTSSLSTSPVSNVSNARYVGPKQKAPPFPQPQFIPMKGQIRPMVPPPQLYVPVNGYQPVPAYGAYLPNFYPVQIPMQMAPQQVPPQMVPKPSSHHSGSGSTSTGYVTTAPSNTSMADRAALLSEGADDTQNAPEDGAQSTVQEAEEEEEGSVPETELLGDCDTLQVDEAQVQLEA

Results are given in words; binding and its absence hold for the method and conditions named. Some entries that bind do so weakly or less than the wild type.

The target of the test is human ROR2 (human) (UniProt Q01974). Nature of the test: ELISA, scFv clones.

B1: h6E6-001 scFv clone (scFv, V domains shown)
VH: EVQLVESGGGLVKPGGSLRLSCAASGFTFSKYGISWVRQAPGKGLEWVSTISSGGGYTHYADSVKGRFTISRDNAKNSLYLQMNSLRAEDTAVYYCARHPRDFSYALDYWGQGTTVTVSS
VL: EIVMTQSPATLSVSPGERATLSCKASQDVGHYVAWYQQKPGQAPRLLIYWASTRATGIPARFSGSGSGTEFTLTISSLQSEDFAVYYCQQYNIYPWTFGQGTKVEIK
Consider B1, for which the binding result is given as “binds”.

B2: h6E6-003 scFv clone (scFv, V domains shown)
VH: EVQLVESGGGLVKPGGSLRLSCAASGFTFSQYGTSWVRQAPGKGLEWVSTISSGGGYTHYAESVKGRFTISRDNAKNSLYLQMNSLRAEDTAVYYCARHPRDFSYAHDYWGQGTTVTVSS
VL: EIVMTQSPATLSVSPGERATLSCRASQDVGHYLAWYQQKPGQAPRLLIYWASTRHTGIPARFSGSGSGTEFTLTISSLQSEDFAVYYCQQYNIYPWTFGQGTKVEIK
Regarding B2, the binding result is listed as “binds”.

B3: h6E6-004 scFv clone (scFv, V domains shown)
VH: EVQLVESGGGLVKPGGSLRLSCAASGFTFSGYGMSWVRQAPGKGLEWVSTISSGGGYTHYAASVKGRFTISRDNAKNSLYLQMNSLRAEDTAVYYCARHPRDFSYAFDYWGQGTTVTVSS
VL: EIVMTQSPATLSVSPGERATLSCKASQDVGHYLAWYQQKPGQAPRLLIYWASTRATGIPARFSGSGSGTEFTLTISSLQSEDFAVYYCQQYNIYPWTFGQGTKVEIK
Turning to B3, the binding entry is “binds”.

B4: h6E6-020 scFv clone (scFv, V domains shown)
VH: EVQLVESGGGLVKPGGSLRLSCAASGFTFSKYGVSWVRQAPGKGLEWVSTISSGGGYTHYAPSVKGRFTISRDNAKNSLYLQMNSLRAEDTAVYYCARHPRDFSYAMDYWGQGTTVTVSS
VL: EIVMTQSPATLSVSPGERATLSCKASQDVGHYLAWYQQKPGQAPRLLIYWASTRATGIPARFSGSGSGTEFTLTISSLQSEDFAVYYCQQYNIYPWTFGQGTKVEIK
In the case of B4, the binding result was “binds”.

B5: h6E6-015 scFv clone (scFv, V domains shown)
VH: EVQLVESGGGLVKPGGSLRLSCAASGFTFSNYGLSWVRQAPGKGLEWVSTISSGGGYTHYVTSVKGRFTISRDNAKNSLYLQMNSLRAEDTAVYYCARHPRDFSYALDYWGQGTTVTVSS
VL: EIVMTQSPATLSVSPGERATLSCKASQDVGHYVAWYQQKPGQAPRLLIYWASTRHTGIPARFSGSGSGTEFTLTISSLQSEDFAVYYCQQYNIYPWTFGQGTKVEIK
B5: the binding result is given as “binds”.

B6: h6E6-011 scFv clone (scFv, V domains shown)
VH: EVQLVESGGGLVKPGGSLRLSCAASGFTFSGYGMSWVRQAPGKGLEWVSTISSGGGYTHYATSVKGRFTISRDNAKNSLYLQMNSLRAEDTAVYYCARHPRDFSYAMDYWGQGTTVTVSS
VL: EIVMTQSPATLSVSPGERATLSCKASQDVGHYLAWYQQKPGQAPRLLIYWASTRATGIPARFSGSGSGTEFTLTISSLQSEDFAVYYCQQYNIYPWTFGQGTKVEIK
For the molecule B6, the binding entry was “binds”.

B7: h6E6-012 scFv clone (scFv, V domains shown)
VH: EVQLVESGGGLVKPGGSLRLSCAASGFTFSAYGASWVRQAPGKGLEWVSSISSGGGYTHYVESVKGRFTISRDNAKNSLYLQMNSLRAEDTAVYYCARHPRDFSYAQDYWGQGTTVTVSS
VL: EIVMTQSPATLSVSPGERATLSCRASQDVGHYLAWYQQKPGQAPRLLIYWASTRATGIPARFSGSGSGTEFTLTISSLQSEDFAVYYCQQYNIYPWTFGQGTKVEIK
Take B7: the binding entry was “binds”.

B8: h6E6-009 scFv clone (scFv, V domains shown)
VH: EVQLVESGGGLVKPGGSLRLSCAASGFTFSGYGMNWVRQAPGKGLEWVSTISSGGGYTHYAESVKGRFTISRDNAKNSLYLQMNSLRAEDTAVYYCARHPRDFSYAADYWGQGTTVTVSS
VL: EIVMTQSPATLSVSPGERATLSCKASQDVGHYLAWYQQKPGQAPRLLIYWASTRATGIPARFSGSGSGTEFTLTISSLQSEDFAVYYCQQYNIYPWTFGQGTKVEIK
As for B8, the binding result is “binds”.

B9: h6E6-006 scFv clone (scFv, V domains shown)
VH: EVQLVESGGGLVKPGGSLRLSCAASGFTFSTYGMSWVRQAPGKGLEWVSTISSGGGYTHYATSVKGRFTISRDNAKNSLYLQMNSLRAEDTAVYYCARHPRDFSYAHDYWGQGTTVTVSS
VL: EIVMTQSPATLSVSPGERATLSCRASQDVGHYLAWYQQKPGQAPRLLIYWASTRATGIPARFSGSGSGTEFTLTISSLQSEDFAVYYCQQYNIYPWTFGQGTKVEIK
B9: the binding entry was “binds”.

B10: h6E6-008 scFv clone (scFv, V domains shown)
VH: EVQLVESGGGLVKPGGSLRLSCAASGFTFSQYGTSWVRQAPGKGLEWVSSISSGGGYTHYAESVKGRFTISRDNAKNSLYLQMNSLRAEDTAVYYCARHPRDFSYAFDYWGQGTTVTVSS
VL: EIVMTQSPATLSVSPGERATLSCKASQDVGHYVAWYQQKPGQAPRLLIYWASTRATGIPARFSGSGSGTEFTLTISSLQSEDFAVYYCQQYNIYPWTFGQGTKVEIK
Take B10: the binding result was “binds”.

B11: h6E6-002 scFv clone (scFv, V domains shown)
VH: EVQLVESGGGLVKPGGSLRLSCAASGFTFSSYGISWVRQAPGKGLEWVSTISSGGGYTHYAESVKGRFTISRDNAKNSLYLQMNSLRAEDTAVYYCARHPRDFSYAMDYWGQGTTVTVSS
VL: EIVMTQSPATLSVSPGERATLSCRASQDVGHYLAWYQQKPGQAPRLLIYWASTRHTGIPARFSGSGSGTEFTLTISSLQSEDFAVYYCQQYNIYPWTFGQGTKVEIK
Take B11: the binding result was “binds”.

B12: h6E6-013 scFv clone (scFv, V domains shown)
VH: EVQLVESGGGLVKPGGSLRLSCAASGFTFSKYGISWVRQAPGKGLEWVSTISSGGGYTHYAASVKGRFTISRDNAKNSLYLQMNSLRAEDTAVYYCARHPRDFSYAQDYWGQGTTVTVSS
VL: EIVMTQSPATLSVSPGERATLSCKASQDVGHYLAWYQQKPGQAPRLLIYWASTRATGIPARFSGSGSGTEFTLTISSLQSEDFAVYYCQQYNIYPWTFGQGTKVEIK
As to B12, the binding result is given as “binds”.

B13: h6E6-019 scFv clone (scFv, V domains shown)
VH: EVQLVESGGGLVKPGGSLRLSCAASGFTFSRYGVSWVRQAPGKGLEWVSTISSGGGYTHYAASVKGRFTISRDNAKNSLYLQMNSLRAEDTAVYYCARHPRDFSYAQDYWGQGTTVTVSS
VL: EIVMTQSPATLSVSPGERATLSCKASQDVGHYVAWYQQKPGQAPRLLIYWASTRATGIPARFSGSGSGTEFTLTISSLQSEDFAVYYCQQYNIYPWTFGQGTKVEIK
Turning to B13, the binding entry is listed as “binds”.

B14: h6E6-007 scFv clone (scFv, V domains shown)
VH: EVQLVESGGGLVKPGGSLRLSCAASGFTFSGYGLSWVRQAPGKGLEWVSTISSGGGYTHYAPSVKGRFTISRDNAKNSLYLQMNSLRAEDTAVYYCARHPRDFSYAQDYWGQGTTVTVSS
VL: EIVMTQSPATLSVSPGERATLSCKASQDVGHYVAWYQQKPGQAPRLLIYWASTRATGIPARFSGSGSGTEFTLTISSLQSEDFAVYYCQQYNIYPWTFGQGTKVEIK
In the case of B14, the binding entry was “binds”.

B15: h6E6-018 scFv clone (scFv, V domains shown)
VH: EVQLVESGGGLVKPGGSLRLSCAASGFTFSGYGVSWVRQAPGKGLEWVSTISSGGGYTHYADSVKGRFTISRDNAKNSLYLQMNSLRAEDTAVYYCARHPRDFSYALDYWGQGTTVTVSS
VL: EIVMTQSPATLSVSPGERATLSCRASQDVGHYLAWYQQKPGQAPRLLIYWASTRATGIPARFSGSGSGTEFTLTISSLQSEDFAVYYCQQYNIYPWTFGQGTKVEIK
For the molecule B15, the binding entry is recorded as “binds”.

B16: h6E6-005 scFv clone (scFv, V domains shown)
VH: EVQLVESGGGLVKPGGSLRLSCAASGFTFSGYGLSWVRQAPGKGLEWVSTISSGGGYTHYAASVKGRFTISRDNAKNSLYLQMNSLRAEDTAVYYCARHPRDFSYAMDYWGQGTTVTVSS
VL: EIVMTQSPATLSVSPGERATLSCKASQDVGHYVAWYQQKPGQAPRLLIYWASTRATGIPARFSGSGSGTEFTLTISSLQSEDFAVYYCQQYNIYPWTFGQGTKVEIK
With B16, the binding result is on record as “binds”.

B17: h6E6-017 scFv clone (scFv, V domains shown)
VH: EVQLVESGGGLVKPGGSLRLSCAASGFTFSRYGMSWVRQAPGKGLEWVSSISSGGGYTHYAESVKGRFTISRDNAKNSLYLQMNSLRAEDTAVYYCARHPRDFSYAMDYWGQGTTVTVSS
VL: EIVMTQSPATLSVSPGERATLSCKASQDVGHYLAWYQQKPGQAPRLLIYWASTRHTGIPARFSGSGSGTEFTLTISSLQSEDFAVYYCQQYNIYPWTFGQGTKVEIK
B17: the binding entry is “binds”.

B18: h6E6-016 scFv clone (scFv, V domains shown)
VH: EVQLVESGGGLVKPGGSLRLSCAASGFTFSAYGMSWVRQAPGKGLEWVSTISSGGGYTHYATSVKGRFTISRDNAKNSLYLQMNSLRAEDTAVYYCARHPRDFSYAQDYWGQGTTVTVSS
VL: EIVMTQSPATLSVSPGERATLSCKASQDVGHYVAWYQQKPGQAPRLLIYWASTRHTGIPARFSGSGSGTEFTLTISSLQSEDFAVYYCQQYNIYPWTFGQGTKVEIK
Regarding B18, the binding result is on record as “binds”.

B19: h6E6-010 scFv clone (scFv, V domains shown)
VH: EVQLVESGGGLVKPGGSLRLSCAASGFTFSNYGMSWVRQAPGKGLEWVSTISSGGGYTHYVASVKGRFTISRDNAKNSLYLQMNSLRAEDTAVYYCARHPRDFSYAMDYWGQGTTVTVSS
VL: EIVMTQSPATLSVSPGERATLSCKASQDVGHYLAWYQQKPGQAPRLLIYWASTRATGIPARFSGSGSGTEFTLTISSLQSEDFAVYYCQQYNIYPWTFGQGTKVEIK
Regarding B19, the binding entry is “binds”.

B20: h6E6-021 scFv clone (scFv, V domains shown)
VH: EVQLVESGGGLVKPGGSLRLSCAASGFTFSSYGMSWVRQAPGKGLEWVSTISSGGGYTHYVASVKGRFTISRDNAKNSLYLQMNSLRAEDTAVYYCARHPRDFSYALDYWGQGTTVTVSS
VL: EIVMTQSPATLSVSPGERATLSCKASQDVGHYLAWYQQKPGQAPRLLIYWASTRATGIPARFSGSGSGTEFTLTISSLQSEDFAVYYCQQYNIYPWTFGQGTKVEIK
For the molecule B20, the binding result is listed as “binds”.

B21: h6E6-014 scFv clone (scFv, V domains shown)
VH: EVQLVESGGGLVKPGGSLRLSCAASGFTFSSYGMNWVRQAPGKGLEWVSTISSGGGYTHYVDSVKGRFTISRDNAKNSLYLQMNSLRAEDTAVYYCARHPRDFSYATDYWGQGTTVTVSS
VL: EIVMTQSPATLSVSPGERATLSCRASQDVGHYVAWYQQKPGQAPRLLIYWASTRHTGIPARFSGSGSGTEFTLTISSLQSEDFAVYYCQQYNIYPWTFGQGTKVEIK
As for B21, the binding result is given as “binds”.
